Measurements from publication PMC4941734, “Structural and dynamics studies of a truncated variant of CI repressor from bacteriophage TP901-1” (Scientific Reports, 2016).
Construct, isoform or probe ends are uncertain for at least one entry. Protein sequences can lack the tags named with them.

Biological target: T1, CI∆58 (CI repressor, C-terminally truncated) (bacteriophage TP901-1 (host Lactococcus lactis)) (UniProt O48503)
T1 sequence (looked up): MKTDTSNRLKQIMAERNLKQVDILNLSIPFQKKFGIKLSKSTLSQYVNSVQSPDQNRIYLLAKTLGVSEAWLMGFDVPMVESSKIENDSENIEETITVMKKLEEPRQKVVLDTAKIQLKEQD
Test: NMR (1H-15N HSQC titration)
Settings: 300 mM NaCl, 298 K, only NTD resonances shift, NMR: 300 mM NaCl, recombinant protein, residues 1-122, protein details: C-terminal RSHHHHHH

“GTTCATGAAACGTGAACT (double strand) [OL operator 18 bp]”: binds.
